The source of these data is paper PMC8734417.

The target of this assay is T1, human epididymis protein 4 (human (endogenous in OVCAR3 and ES-2)) (UniProt Q14508).
T1 sequence: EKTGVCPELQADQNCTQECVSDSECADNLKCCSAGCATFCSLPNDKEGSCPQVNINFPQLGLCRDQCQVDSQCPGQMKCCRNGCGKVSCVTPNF
Put plainly: co-IP; endogenous proteins in RIPA lysates of OVCAR3 and ES-2 cells; immunoprecipitation with anti-HE4 and blot for CD147, and immunoprecipitation with anti-CD147 and blot for HE4; overnight at 4 °C, protein A/G-agarose beads; mouse or rabbit IgG as negative control.

These are yes or no findings as the source states them, for the method shown. Binding seen in cells or lysates may run through a third protein. Binding calls can cover weak binding; strength is not graded here.

On to “CD147 (extracellular matrix metalloproteinase inducer) (human (endogenous in OVCAR3 and ES-2))”, for which the binding entry is on record as “binds”.
